Test results as given in the supplement of paper PMC12595434, “Development of retinoid nuclear receptor pathway antagonists through targeting aldehyde dehydrogenase 1A3” (iScience, 2025).
Some of the results follow. This is a noisy data set.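 Many melting curves are irregular; where none melted, Tm was taken as 64 °C.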

Protein sequences, listed by entry. Tags and fused reporters are not part of them. Lines headed by an entry give the natural chain unless they say otherwise; changes in a name come on top.
UniProt Q8NB25: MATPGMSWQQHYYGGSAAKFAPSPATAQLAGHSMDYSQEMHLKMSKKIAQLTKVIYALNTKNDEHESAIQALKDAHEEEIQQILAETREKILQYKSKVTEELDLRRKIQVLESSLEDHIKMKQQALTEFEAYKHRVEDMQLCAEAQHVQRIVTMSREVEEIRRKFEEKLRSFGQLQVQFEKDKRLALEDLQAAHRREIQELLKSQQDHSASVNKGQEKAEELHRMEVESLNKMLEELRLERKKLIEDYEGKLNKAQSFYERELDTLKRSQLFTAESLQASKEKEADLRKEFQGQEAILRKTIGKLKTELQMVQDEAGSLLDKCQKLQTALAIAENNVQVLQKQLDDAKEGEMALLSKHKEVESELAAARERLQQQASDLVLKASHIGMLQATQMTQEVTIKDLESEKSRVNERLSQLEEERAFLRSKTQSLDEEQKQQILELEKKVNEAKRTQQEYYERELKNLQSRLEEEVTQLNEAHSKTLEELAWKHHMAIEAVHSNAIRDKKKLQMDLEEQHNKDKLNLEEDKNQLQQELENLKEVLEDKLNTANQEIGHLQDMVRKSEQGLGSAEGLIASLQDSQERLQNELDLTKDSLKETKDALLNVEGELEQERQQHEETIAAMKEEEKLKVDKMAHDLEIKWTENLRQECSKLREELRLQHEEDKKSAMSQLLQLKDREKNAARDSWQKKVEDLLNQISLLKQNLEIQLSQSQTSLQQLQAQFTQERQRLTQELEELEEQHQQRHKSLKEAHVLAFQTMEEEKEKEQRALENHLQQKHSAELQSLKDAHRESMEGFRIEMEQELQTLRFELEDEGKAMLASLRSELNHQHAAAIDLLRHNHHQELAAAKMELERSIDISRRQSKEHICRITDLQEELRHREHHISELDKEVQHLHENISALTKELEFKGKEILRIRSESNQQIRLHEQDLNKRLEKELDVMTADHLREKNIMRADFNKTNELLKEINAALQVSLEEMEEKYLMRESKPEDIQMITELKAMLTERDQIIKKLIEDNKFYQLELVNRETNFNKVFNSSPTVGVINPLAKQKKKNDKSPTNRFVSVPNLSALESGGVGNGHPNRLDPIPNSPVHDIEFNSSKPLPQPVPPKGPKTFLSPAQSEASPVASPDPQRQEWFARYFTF
UniProt Q8ND82: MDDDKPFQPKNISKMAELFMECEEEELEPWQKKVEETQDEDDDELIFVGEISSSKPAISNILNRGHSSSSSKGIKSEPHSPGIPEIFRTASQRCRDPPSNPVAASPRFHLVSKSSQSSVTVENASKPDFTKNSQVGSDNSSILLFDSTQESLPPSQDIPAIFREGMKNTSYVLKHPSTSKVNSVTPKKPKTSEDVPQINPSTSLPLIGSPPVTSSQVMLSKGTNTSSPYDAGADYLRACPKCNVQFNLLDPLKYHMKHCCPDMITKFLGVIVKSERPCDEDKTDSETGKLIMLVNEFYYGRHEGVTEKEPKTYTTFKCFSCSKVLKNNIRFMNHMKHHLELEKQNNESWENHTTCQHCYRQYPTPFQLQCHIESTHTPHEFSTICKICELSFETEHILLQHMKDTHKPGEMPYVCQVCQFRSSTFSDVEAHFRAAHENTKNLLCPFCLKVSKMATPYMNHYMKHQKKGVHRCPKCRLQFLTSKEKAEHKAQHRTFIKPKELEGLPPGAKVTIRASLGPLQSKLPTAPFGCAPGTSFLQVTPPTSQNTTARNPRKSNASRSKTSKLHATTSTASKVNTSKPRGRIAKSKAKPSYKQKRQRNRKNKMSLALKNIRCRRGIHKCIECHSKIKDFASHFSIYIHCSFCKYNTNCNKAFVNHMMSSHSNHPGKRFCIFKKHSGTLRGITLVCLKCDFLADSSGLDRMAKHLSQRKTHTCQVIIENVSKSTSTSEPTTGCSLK
UniProt Q8TAF3: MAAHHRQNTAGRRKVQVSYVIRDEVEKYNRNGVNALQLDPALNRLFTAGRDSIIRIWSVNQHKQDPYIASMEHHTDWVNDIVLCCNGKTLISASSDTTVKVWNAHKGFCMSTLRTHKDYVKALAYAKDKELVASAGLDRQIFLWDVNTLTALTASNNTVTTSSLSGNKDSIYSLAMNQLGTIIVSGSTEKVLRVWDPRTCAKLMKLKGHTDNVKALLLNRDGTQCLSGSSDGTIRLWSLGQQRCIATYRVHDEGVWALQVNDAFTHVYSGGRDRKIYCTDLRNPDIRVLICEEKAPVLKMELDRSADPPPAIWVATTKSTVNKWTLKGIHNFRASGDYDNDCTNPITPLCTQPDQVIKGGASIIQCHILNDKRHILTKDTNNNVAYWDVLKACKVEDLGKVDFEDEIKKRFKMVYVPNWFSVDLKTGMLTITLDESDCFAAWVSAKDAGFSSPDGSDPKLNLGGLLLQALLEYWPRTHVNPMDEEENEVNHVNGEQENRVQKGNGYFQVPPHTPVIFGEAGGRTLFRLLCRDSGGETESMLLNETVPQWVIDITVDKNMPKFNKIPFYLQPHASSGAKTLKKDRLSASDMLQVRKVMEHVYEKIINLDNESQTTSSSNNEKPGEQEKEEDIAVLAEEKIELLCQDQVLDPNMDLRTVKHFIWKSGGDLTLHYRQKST
UniProt Q8NC96: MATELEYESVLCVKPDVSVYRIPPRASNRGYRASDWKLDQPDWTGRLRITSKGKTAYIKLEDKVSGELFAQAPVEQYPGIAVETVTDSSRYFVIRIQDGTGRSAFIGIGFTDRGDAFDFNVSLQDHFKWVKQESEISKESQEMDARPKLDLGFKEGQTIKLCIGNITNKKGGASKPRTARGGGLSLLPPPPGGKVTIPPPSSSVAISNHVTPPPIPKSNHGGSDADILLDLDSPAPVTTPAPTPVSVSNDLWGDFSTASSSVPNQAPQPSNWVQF
UniProt Q8TCE6, whole entry: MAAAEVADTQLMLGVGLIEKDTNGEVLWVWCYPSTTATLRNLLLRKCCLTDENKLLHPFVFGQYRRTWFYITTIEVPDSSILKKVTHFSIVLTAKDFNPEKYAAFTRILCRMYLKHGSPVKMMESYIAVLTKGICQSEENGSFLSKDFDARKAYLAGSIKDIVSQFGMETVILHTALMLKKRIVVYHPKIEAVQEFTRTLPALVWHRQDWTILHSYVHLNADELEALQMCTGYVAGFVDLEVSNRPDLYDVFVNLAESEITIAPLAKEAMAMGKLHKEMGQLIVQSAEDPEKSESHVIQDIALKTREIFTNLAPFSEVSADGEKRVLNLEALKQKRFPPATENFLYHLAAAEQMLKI
UniProt Q8WVM8, whole entry, looked up: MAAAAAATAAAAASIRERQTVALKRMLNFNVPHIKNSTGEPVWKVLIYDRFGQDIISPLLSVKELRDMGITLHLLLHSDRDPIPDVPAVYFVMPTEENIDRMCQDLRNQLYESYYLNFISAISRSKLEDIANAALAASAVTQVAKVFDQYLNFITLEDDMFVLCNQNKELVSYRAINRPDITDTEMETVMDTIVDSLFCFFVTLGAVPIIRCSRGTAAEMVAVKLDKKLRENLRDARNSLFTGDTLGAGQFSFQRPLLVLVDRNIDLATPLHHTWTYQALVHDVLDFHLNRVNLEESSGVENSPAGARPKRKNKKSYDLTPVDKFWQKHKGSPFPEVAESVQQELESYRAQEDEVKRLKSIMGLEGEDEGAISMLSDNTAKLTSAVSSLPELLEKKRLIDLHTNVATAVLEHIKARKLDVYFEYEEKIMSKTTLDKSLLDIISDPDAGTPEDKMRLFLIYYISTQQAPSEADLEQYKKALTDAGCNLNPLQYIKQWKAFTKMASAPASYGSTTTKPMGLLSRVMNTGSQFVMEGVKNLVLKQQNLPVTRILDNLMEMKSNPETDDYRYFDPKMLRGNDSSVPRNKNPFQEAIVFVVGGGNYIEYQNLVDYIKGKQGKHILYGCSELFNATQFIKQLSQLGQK
UniProt Q8WUX2: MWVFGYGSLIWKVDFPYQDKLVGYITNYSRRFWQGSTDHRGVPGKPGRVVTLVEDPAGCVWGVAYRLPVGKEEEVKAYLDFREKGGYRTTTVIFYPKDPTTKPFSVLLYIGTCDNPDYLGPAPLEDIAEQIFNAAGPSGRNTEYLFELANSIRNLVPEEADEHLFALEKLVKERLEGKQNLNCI
UniProt Q8NBT2: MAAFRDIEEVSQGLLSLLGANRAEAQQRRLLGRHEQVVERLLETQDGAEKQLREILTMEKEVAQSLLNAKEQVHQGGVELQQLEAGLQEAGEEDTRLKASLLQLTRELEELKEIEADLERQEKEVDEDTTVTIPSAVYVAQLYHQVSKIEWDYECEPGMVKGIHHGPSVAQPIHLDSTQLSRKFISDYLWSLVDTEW
UniProt Q8TBA6: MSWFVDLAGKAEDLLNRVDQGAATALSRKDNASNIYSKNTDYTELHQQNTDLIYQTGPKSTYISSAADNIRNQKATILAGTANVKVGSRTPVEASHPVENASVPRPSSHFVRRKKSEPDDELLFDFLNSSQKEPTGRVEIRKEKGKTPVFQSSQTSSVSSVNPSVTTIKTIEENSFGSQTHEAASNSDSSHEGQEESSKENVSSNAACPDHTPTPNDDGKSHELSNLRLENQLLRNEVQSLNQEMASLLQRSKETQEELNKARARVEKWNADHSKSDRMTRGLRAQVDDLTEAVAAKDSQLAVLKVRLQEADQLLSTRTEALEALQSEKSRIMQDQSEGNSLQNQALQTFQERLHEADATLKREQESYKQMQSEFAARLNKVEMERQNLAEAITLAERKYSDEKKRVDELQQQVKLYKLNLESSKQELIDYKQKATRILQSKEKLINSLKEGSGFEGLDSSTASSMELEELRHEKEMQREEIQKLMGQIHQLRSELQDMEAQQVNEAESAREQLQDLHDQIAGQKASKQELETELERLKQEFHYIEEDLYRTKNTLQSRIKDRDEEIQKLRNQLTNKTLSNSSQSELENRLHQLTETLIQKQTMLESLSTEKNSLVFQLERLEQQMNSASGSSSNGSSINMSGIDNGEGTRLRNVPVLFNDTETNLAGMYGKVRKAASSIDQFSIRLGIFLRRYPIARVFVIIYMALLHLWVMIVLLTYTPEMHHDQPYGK
UniProt Q8N8Q8: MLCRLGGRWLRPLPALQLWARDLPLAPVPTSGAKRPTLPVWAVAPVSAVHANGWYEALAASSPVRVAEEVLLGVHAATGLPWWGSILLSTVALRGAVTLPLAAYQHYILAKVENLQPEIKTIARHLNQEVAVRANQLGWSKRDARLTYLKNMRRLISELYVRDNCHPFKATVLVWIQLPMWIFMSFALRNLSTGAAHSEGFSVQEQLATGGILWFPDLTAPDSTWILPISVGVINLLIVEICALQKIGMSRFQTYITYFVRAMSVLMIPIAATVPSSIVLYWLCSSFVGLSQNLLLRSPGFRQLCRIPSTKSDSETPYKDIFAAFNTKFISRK
UniProt Q8WTS6: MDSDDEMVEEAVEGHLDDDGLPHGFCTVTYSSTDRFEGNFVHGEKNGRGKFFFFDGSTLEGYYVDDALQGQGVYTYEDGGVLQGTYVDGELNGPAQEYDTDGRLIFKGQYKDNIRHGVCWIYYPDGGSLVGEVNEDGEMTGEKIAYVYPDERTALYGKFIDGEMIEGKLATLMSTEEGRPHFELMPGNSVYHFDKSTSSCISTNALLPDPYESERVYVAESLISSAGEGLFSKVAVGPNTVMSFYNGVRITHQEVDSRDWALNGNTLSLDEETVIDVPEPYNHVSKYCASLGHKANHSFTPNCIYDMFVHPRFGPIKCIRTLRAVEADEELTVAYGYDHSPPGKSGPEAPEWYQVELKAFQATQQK
UniProt Q8NAT1: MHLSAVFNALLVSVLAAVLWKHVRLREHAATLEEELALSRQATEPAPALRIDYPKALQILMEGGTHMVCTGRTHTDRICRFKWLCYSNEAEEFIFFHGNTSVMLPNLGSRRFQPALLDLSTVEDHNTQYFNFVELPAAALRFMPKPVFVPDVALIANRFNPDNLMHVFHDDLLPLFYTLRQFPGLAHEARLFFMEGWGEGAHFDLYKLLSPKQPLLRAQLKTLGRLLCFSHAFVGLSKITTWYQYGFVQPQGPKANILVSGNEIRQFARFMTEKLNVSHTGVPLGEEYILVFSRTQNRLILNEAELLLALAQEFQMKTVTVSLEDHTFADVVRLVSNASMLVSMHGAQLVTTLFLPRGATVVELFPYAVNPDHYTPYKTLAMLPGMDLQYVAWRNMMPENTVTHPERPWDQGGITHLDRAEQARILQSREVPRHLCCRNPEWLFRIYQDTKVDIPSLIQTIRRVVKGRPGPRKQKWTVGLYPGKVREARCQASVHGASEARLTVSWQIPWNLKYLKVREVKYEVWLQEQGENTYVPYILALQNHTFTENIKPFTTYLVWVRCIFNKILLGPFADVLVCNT
UniProt Q8NG68: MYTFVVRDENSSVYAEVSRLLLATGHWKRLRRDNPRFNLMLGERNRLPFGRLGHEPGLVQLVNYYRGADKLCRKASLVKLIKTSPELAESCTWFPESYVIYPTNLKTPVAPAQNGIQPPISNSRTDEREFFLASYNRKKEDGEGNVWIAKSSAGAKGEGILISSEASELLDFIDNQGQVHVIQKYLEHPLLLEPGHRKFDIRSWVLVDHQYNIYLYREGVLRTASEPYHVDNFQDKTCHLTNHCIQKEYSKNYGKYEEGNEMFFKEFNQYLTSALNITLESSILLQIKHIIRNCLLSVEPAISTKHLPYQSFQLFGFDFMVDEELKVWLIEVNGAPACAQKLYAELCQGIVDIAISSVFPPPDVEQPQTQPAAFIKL

Compound: CCc1cnccc1C(=O)Nc1cc2c(cc1F)NC(=O)CC2
Experiment: melting temperature shift (DMSO Tm minus MBE1-treated Tm) in cellular thermal proteome profiling; higher = less thermal stabilization by MBE1 (negative = stabilized by MBE1)
Conditions: A375

Target | melting temperature shift (MBE1 concentration: 100 nM) [°C] | melting temperature shift (MBE1 concentration: 1 uM) [°C]
UniProt Q8NB25 | 0.181 | -0.181
UniProt Q8ND82 | 0.983 | 0.946
DCAF11 (UniProt Q8TEB1) | -2.06 | 0.415
SPATA20 (UniProt Q8TB22) | 1.15 | 1.15
GDAP1 (UniProt Q8TB36) | -1.36 | -0.0939
DYNC2LI1 (UniProt Q8TCX1) | 1.28 | 0.501
BRIX1 (UniProt Q8TDN6) | -0.503 | 0.651
WDR48 (UniProt Q8TAF3) | -1.3 | -0.147
CHST14 (UniProt Q8NCH0) | -0.0427 | 0.507
RDH13 (UniProt Q8NBN7) | -0.408 | 0.22
PPIL4 (UniProt Q8WUA2) | -0.299 | -0.736
SMAP2 (UniProt Q8WU79) | -0.984 | -0.988
UniProt Q8WUA8 | -0.66 | 0.295
UniProt Q8WTT2 | -0.295 | -0.122
SSH3 (UniProt Q8TE77) | 0.765 | -0.134
UniProt Q8ND76 | 0 | 0.269
USP33 (UniProt Q8TEY7) | -1.43 | -0.739
URGCP (UniProt Q8TCY9) | -0.55 | -1.05
UniProt Q8TEU7 | -0.766 | -0.532
UniProt Q8NDA8 | -1.25 | -1.59
NECAP1 (UniProt Q8NC96) | -0.63 | -0.483
NHLRC2 (UniProt Q8NBF2) | -0.0305 | 0.605
UniProt Q8TAM2 | -0.964 | -2.24

Target | melting temperature shift (MBE1 concentration: 100 nM) [°C] | melting temperature shift (MBE1 concentration: 1 uM) [°C]
UniProt Q8TCE6 | 1.48 | 1.61
NEK9 (UniProt Q8TD19) | 0.434 | 0.0122
MRPL30 (UniProt Q8TCC3) | 1.03 | 0.275
AVL9 (UniProt Q8NBF6) | -0.664 | 0.751
CDC26 (UniProt Q8NHZ8) | -11.6 | -0.589
SCFD1 (UniProt Q8WVM8) | 0.482 | -0.122
PIK3C3 (UniProt Q8NEB9) | 0.11 | 0.798
CHAC2 (UniProt Q8WUX2) | -0.637 | 0.121
UBLCP1 (UniProt Q8WVY7) | -0.244 | 0.171
SPC24 (UniProt Q8NBT2) | 0.605 | 0.537
LEO1 (UniProt Q8WVC0) | -0.448 | -0.186
UBA3 (UniProt Q8TBC4) | 0.721 | 0.159
BICD2 (UniProt Q8TD16) | 0.183 | -0.269
PIGO (UniProt Q8TEQ8) | -0.406 | 0.464
GOLGA5 (UniProt Q8TBA6) | -1.08 | -0.238
FBXO30 (UniProt Q8TB52) | 1.39 | 1.83
PPHLN1 (UniProt Q8NEY8) | 0.0961 | -1.78
UniProt Q8TEB9 | -0.0939 | -0.255
KRI1 (UniProt Q8N9T8) | -0.122 | -0.359
TFB1M (UniProt Q8WVM0) | 0.867 | -0.208
ABCF1 (UniProt Q8NE71) | -0.523 | 0.14
UniProt Q8N8Q8 | -1.35 | -1.67
CNNM3 (UniProt Q8NE01) | -0.288 | 0.464

Taken from the results shown for reference:
Target | melting temperature shift (MBE1 concentration: 100 nM) [°C] | melting temperature shift (MBE1 concentration: 1 uM) [°C]
UniProt Q8NB25 | 0.181 | -0.181
UniProt Q8ND82 | 0.983 | 0.946
DCAF11 (UniProt Q8TEB1) | -2.06 | 0.415
SPATA20 (UniProt Q8TB22) | 1.15 | 1.15

Later entries

Target | melting temperature shift (MBE1 concentration: 100 nM) [°C] | melting temperature shift (MBE1 concentration: 1 uM) [°C]
NUP37 (UniProt Q8NFH4) | -0.902 | 0.134
CEP192 (UniProt Q8TEP8) | -2.16 | -1.06
UniProt Q8WVZ9 | 0.708 | 0.721
UniProt Q8NFP9 | -0.624 | 0.904
RNASEH2C (UniProt Q8TDP1) | 0.147 | -0.055
PTPMT1 (UniProt Q8WUK0) | -0.055 | 1.38
UniProt Q8WUW1 | -2.7 | -2.35
MCU (UniProt Q8NE86) | 0.624 | 0.483
PYROXD1 (UniProt Q8WU10) | 0.924 | -0.635
ATP11C (UniProt Q8NB49) | -0.464 | 0.58
UniProt Q8NFG4 | -0.132 | 0.527
MRPL43 (UniProt Q8N983) | 0.0488 | 6.89
SETD7 (UniProt Q8WTS6) | -0.974 | 0.174
GEMIN5 (UniProt Q8TEQ6) | 0.415 | 0.0916
UniProt Q8NF91 | 1.43 | 2.63
NPLOC4 (UniProt Q8TAT6) | -0.311 | 0.488
FAM98A (UniProt Q8NCA5) | 1.11 | 0.134
UniProt Q8NFJ9 | 1.36 | 1.58
UniProt Q8TBZ3 | -1.02 | -0.503
UniProt Q8NAT1 | -1.28 | -0.177
ARL14EP (UniProt Q8N8R7) | -2.1 | -0.207
TTL (UniProt Q8NG68) | -0.684 | -0.55
SNX33 (UniProt Q8WV41) | -0.8 | -0.795
